Literature values, collected in patent US20100203125A1, “SYNERGISTIC ANTIBACTERIAL FORMULATION AND A METHOD OF MAKING THE SAME” (priority 2004, published 2010).
At least one structure is not confirmed: it was looked up by name or label, or the drawing left a doubt.

Assays:
Salmonella sp. = tested on: Salmonella sp.; set-up: unit not given beside the values; conditions: cited from earlier work
Shigella sp. = tested on: Shigella sp.; set-up: unit not given beside the values; conditions: cited from earlier work

## C=CC1=C(C(=O)O)N2C(=O)[C@@H](NC(=O)/C(=N\OCC(=O)O)c3csc(N)n3)[C@H]2SC1 [Cefixime]
Salmonella sp.
  MIC 90: 0.25
Shigella sp.
  MIC 90: 0.25
